In publication PMC12618078:
These are yes or no findings as the source states them, for the method shown. In cells and extracts the contact can be indirect. Some entries that bind do so weakly or less than the wild type.

The chains behind the UniProt entries cited, without tags or fusion partners. Where a name states a change or a piece, a line headed by the entry shows the natural chain unless it says otherwise.
UniProt Q5UIP0: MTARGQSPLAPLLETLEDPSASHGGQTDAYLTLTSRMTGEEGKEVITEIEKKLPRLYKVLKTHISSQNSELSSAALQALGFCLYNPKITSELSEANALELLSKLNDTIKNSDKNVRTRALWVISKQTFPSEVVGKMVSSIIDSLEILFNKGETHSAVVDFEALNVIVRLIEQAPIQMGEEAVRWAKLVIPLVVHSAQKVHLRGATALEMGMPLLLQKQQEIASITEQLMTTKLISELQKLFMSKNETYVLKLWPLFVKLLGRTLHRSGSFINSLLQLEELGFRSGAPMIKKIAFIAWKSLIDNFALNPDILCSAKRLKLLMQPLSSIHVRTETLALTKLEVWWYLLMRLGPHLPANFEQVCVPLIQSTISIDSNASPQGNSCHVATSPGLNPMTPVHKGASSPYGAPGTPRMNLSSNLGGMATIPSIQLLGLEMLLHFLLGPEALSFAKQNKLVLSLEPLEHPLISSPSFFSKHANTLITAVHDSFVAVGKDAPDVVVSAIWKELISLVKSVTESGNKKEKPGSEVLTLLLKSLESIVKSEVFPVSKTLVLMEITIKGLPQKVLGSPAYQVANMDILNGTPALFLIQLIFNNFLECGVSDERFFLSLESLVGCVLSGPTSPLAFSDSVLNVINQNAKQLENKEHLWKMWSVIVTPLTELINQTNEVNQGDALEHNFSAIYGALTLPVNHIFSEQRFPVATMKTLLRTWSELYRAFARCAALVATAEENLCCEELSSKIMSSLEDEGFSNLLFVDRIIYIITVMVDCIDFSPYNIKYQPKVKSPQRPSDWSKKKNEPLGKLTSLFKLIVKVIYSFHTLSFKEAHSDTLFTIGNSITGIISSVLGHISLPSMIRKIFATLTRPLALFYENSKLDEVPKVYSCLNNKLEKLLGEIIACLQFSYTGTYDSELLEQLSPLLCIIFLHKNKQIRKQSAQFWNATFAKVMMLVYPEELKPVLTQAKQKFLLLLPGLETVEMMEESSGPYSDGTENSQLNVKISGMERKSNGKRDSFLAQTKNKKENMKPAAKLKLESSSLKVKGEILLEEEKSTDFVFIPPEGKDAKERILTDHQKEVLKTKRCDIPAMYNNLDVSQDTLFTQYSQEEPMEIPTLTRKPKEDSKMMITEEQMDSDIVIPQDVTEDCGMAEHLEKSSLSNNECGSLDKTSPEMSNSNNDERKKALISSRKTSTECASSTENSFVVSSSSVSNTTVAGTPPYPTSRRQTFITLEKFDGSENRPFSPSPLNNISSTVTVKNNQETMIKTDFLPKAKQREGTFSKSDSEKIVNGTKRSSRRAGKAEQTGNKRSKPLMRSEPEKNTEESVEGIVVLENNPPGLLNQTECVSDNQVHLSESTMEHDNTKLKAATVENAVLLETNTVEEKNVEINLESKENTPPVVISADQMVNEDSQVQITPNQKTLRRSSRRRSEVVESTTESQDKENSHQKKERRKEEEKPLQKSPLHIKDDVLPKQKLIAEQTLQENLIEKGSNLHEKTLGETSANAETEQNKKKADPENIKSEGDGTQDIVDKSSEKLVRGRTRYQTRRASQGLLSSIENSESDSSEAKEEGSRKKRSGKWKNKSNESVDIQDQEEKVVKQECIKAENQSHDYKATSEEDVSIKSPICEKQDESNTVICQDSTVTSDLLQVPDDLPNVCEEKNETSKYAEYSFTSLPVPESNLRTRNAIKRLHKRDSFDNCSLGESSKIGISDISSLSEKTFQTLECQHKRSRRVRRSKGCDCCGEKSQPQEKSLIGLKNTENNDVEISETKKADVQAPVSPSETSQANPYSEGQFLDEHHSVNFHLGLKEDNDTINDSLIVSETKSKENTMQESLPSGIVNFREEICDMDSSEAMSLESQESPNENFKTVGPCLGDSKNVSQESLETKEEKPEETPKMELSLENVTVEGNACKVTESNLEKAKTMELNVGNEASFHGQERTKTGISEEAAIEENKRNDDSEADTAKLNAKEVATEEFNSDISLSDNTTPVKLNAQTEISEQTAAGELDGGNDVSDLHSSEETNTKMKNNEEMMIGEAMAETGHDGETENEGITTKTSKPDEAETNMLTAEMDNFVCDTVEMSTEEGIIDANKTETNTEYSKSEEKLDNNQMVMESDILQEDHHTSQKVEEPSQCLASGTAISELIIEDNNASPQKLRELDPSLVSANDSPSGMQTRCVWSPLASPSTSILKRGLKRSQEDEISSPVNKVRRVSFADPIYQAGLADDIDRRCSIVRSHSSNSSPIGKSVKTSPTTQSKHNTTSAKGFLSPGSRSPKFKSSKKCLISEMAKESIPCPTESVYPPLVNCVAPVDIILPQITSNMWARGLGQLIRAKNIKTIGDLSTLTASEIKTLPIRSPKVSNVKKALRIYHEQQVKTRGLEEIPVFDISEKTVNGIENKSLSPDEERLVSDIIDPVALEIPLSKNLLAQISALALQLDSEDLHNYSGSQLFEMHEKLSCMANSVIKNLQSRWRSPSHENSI
UniProt Q6ZW49: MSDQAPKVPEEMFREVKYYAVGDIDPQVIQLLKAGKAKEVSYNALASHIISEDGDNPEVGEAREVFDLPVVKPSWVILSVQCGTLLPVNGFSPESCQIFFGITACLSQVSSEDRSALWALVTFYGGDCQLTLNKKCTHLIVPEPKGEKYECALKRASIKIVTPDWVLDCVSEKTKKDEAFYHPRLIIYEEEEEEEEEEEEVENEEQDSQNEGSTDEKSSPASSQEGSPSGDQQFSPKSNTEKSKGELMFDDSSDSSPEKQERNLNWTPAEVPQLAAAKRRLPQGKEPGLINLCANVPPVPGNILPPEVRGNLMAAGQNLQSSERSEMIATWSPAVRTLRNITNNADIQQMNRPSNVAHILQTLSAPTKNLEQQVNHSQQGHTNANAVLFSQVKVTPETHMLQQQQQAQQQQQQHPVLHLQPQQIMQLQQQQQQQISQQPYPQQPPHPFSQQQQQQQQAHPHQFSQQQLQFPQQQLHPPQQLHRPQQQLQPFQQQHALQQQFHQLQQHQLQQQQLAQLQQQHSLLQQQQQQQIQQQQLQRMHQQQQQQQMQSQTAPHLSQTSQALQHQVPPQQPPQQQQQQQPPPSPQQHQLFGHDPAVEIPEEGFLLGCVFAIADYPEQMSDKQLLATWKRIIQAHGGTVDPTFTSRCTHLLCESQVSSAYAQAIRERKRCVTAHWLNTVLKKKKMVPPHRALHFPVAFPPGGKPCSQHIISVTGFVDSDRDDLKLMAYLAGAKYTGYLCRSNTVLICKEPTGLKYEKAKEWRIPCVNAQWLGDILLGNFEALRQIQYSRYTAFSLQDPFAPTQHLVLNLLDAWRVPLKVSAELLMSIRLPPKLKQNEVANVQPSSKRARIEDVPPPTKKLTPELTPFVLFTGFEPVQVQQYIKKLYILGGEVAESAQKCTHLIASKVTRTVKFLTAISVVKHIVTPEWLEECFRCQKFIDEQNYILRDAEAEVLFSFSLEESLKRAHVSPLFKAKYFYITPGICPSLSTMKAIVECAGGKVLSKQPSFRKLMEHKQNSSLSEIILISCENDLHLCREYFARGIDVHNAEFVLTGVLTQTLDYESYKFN
UniProt P49841: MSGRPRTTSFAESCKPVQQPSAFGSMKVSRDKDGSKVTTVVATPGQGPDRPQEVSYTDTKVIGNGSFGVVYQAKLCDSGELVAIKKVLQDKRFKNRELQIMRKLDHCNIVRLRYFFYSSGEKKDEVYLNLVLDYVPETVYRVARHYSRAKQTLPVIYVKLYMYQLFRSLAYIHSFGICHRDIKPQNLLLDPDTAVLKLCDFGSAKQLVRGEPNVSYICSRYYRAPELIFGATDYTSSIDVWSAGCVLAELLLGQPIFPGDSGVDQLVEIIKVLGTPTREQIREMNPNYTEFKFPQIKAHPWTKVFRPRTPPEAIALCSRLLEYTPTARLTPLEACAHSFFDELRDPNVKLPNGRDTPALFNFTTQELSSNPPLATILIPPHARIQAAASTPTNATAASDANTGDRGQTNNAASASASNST
UniProt Q12888: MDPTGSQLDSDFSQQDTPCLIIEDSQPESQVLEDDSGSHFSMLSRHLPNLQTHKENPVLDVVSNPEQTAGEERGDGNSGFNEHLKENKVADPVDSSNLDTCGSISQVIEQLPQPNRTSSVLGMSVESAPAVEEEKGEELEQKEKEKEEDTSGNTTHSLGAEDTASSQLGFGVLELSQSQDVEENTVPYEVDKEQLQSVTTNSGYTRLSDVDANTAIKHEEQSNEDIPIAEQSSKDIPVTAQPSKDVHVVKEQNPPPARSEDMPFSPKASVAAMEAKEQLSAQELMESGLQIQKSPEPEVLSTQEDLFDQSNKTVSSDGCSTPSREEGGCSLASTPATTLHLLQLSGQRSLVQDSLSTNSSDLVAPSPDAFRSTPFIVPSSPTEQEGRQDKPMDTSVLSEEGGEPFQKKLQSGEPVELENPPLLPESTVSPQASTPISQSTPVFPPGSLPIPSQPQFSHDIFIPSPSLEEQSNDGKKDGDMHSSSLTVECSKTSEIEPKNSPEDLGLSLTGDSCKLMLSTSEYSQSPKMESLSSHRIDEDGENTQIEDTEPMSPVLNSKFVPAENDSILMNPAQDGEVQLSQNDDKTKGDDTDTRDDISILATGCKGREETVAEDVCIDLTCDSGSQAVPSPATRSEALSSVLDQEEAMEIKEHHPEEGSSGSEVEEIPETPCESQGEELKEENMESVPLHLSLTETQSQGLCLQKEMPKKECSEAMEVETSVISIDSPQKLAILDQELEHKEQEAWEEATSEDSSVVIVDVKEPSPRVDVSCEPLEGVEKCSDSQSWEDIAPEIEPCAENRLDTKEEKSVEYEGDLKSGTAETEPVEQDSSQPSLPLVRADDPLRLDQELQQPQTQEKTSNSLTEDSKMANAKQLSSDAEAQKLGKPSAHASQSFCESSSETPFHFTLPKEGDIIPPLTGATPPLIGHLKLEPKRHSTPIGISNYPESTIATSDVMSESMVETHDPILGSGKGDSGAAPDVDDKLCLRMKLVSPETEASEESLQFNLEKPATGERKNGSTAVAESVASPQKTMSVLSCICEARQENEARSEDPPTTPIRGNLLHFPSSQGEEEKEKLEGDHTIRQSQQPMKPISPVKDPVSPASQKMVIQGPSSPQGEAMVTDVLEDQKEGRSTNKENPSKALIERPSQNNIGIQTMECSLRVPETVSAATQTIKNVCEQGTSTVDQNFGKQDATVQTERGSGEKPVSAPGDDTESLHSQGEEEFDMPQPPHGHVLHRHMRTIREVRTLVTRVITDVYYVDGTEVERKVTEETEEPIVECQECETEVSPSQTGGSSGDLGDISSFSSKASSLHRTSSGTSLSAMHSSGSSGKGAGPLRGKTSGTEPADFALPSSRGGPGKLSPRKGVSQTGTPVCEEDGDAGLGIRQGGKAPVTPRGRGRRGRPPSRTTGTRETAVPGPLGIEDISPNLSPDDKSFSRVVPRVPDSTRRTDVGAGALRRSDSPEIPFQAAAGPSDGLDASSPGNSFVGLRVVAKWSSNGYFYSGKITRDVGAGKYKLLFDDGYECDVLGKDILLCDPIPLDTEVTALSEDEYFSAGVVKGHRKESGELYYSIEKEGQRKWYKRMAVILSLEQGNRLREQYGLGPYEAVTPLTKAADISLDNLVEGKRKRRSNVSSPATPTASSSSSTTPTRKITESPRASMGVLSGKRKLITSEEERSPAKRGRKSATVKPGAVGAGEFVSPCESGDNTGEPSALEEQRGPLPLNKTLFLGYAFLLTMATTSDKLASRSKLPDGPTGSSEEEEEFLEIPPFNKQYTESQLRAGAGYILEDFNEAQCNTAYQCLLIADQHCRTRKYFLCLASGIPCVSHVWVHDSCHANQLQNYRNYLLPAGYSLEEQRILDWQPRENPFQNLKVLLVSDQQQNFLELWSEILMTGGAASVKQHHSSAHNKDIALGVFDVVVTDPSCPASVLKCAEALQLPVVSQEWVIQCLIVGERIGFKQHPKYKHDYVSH

Experiments:
RIF1-FLAG [1] = target: RIF1-FLAG (UniProt Q5UIP0); assay: co-IP; WT U2OS cells before and 1 hour after IR (6 Gy); 53BP1 and pT334-53BP1 bands blotted in the precipitates of PTIP and RIF1-FLAG; NETN buffer with nuclease, protein A/G magnetic beads, overnight at 4°C
PTIP [2] = target: PTIP (UniProt Q6ZW49); assay: as above
RIF1-FLAG [3] = target: RIF1-FLAG (UniProt Q5UIP0); assay: co-IP; reciprocal co-IP in 53BP1-/- U2OS cells reconstituted with WT or T334A 53BP1, before and 1 hour after IR (6 Gy); NETN buffer with nuclease, protein A/G magnetic beads, overnight at 4°C
PTIP [4] = target: PTIP (UniProt Q6ZW49); assay: as above
[5] = target: Glycogen synthase kinase 3 β (GSK3B), endogenous (UniProt P49841); assay: co-IP; reciprocal co-IP of endogenous 53BP1 and GSK3B, with or without IR (6 Gy); NETN buffer with nuclease, protein A/G magnetic beads, overnight at 4°C; cell line not stated

Row | binding (RIF1-FLAG [1]) | binding (PTIP [2]) | binding (RIF1-FLAG [3]) | binding (PTIP [4]) | binding [5] | Substance
1 | binds | binds | – | – | – | 53BP1, endogenous in WT U2OS cells (total 53BP1) (from UniProt Q12888 1-1972)
2 | – | – | binds | binds | – | T334A mutant 53BP1 reconstituted in 53BP1-/- U2OS cells (from UniProt Q12888 1-1972)
3 | – | – | binds | binds | – | WT 53BP1 reconstituted in 53BP1-/- U2OS cells (from UniProt Q12888 1-1972)
4 | – | – | – | – | binds | p53 binding protein 1 (53BP1), endogenous, in the co-IP of Figure 1B (from UniProt Q12888 1-1972)
